Measurements from US20090068207A1, “Compositions Containing Beta 2-Glycoprotein I-Derived Peptides for the Prevention and/or Treatment of Vascular Disease” (Vascular Biogenics Ltd., priority 2005, published 2009).

What was measured:
Type in all cases: in vivo
[1] = Body weight, plasma cholesterol and triglyceride after intraperitoneal immunization (LDL-RD mice); conditions: head 100 μg
[2] = Body weight, plasma cholesterol and triglyceride after oral administration (LDL-RD mice); conditions: mean ± S.E
[3] = Body weight, plasma cholesterol and triglyceride after nasal administration (LDL-RD mice); conditions: END, intranasal 10 μg/mouse every other day for 5 days, then Western diet, median
[4] = Body weight, plasma cholesterol and triglyceride after nasal administration (ApoE-KO mice); conditions: mean ± S.E
[5] = Body weight, plasma cholesterol and triglyceride after oral administration (ApoE-KO mice); conditions: ApoE-KO mice
[6] = End, intraperitoneal with incomplete Freund's adjuvant, mean ± S.E
[7] = End, intraperitoneal with incomplete Freund's adjuvant, median
[8] = Time 0, intraperitoneal immunization groups, mean ± S.E
[9] = second weight line (End), intraperitoneal with incomplete Freund's adjuvant, mean ± S.E
[10] = Time 0, nasal 10 μg/mouse groups

ECLPQHAMFGNDTITCTTHGN [Peptide S-2]
Cholesterol [1, 6]: 1289 ± 89 mg/dL
Triglyceride [1, 7]: 576 mg/dL
Cholesterol [1, 8]: 196 ± 9 mg/dL
Triglyceride [1, 8]: 80 ± 8 mg/dL
Weight [1, 8]: 20.2 ± 1.2 g
Weight [1, 9]: 30.5 ± 0.7 g
Cholesterol ([2]; End, oral 100 μg): 1148 ± 71 mg/dL
Triglyceride ([2]; End, oral 100 μg): 382 ± 54 mg/dL
Weight ([2]; End, oral 100 μg): 26.8 ± 1.2 g
Cholesterol ([2]; Time 0, oral 100 μg groups): 244 ± 14 mg/dL
Triglyceride ([2]; Time 0, oral 100 μg groups): 260 ± 28 mg/dL
Weight ([2]; Time 0, oral 100 μg groups): 20.0 ± 0.7 g

HSP-65: recombinant mycobacterial heat shock protein HSP 65
Triglyceride [3]: 288 mg/dL

MLHGDKVSFFCKNKEKKCSYT [Peptide S-4]
Cholesterol [1, 6]: 1267 ± 59 mg/dL
Triglyceride [1, 7]: 321 mg/dL
Cholesterol [1, 8]: 194 ± 10 mg/dL
Triglyceride [1, 8]: 68 ± 6 mg/dL
Weight [1, 8]: 20.0 ± 1.0 g
Weight [1, 9]: 28.8 ± 1.3 g
Cholesterol ([4]; End, nasal 10 μg/mouse): 323 ± 25 mg/dL
Triglyceride ([4]; End, nasal 10 μg/mouse): 117 ± 7 mg/dL
Weight ([4]; End, nasal 10 μg/mouse): 25.7 ± 0.5 g
Cholesterol [4, 10]: 356 ± 12 mg/dL
Triglyceride [4, 10]: 66 ± 5 mg/dL
Weight [4, 10]: 20.5 ± 0.4 g
Cholesterol ([5]; End, oral 50 μg, 5 doses): 414 ± 20 mg/dL
Triglyceride ([5]; End, oral 50 μg, 5 doses): 107 ± 4 mg/dL
Weight ([5]; End, oral 50 μg, 5 doses): 25.4 ± 0.9 g
Cholesterol ([5]; Time 0, oral 50 μg groups): 384 ± 18 mg/dL
Triglyceride ([5]; Time 0, oral 50 μg groups): 85 ± 5 mg/dL
Weight ([5]; Time 0, oral 50 μg groups): 24.8 ± 0.9 g
Cholesterol ([2]; End, oral 100 μg): 1181 ± 63 mg/dL
Triglyceride ([2]; End, oral 100 μg): 345 ± 51 mg/dL
Weight ([2]; End, oral 100 μg): 26.6 ± 0.7 g
Cholesterol ([2]; Time 0, oral 100 μg groups): 243 ± 11 mg/dL
Triglyceride ([2]; Time 0, oral 100 μg groups): 243 ± 31 mg/dL
Weight ([2]; Time 0, oral 100 μg groups): 20.0 ± 0.7 g

SCKVPVKKATVVYQGERVKIQ [Peptide S-3]
Cholesterol [1, 6]: 1385 ± 123 mg/dL
Triglyceride [1, 7]: 459 mg/dL
Cholesterol [1, 8]: 201 ± 12 mg/dL
Triglyceride [1, 8]: 78 ± 18 mg/dL
Weight [1, 8]: 19.9 ± 0.9 g
Weight [1, 9]: 29.2 ± 0.9 g
Cholesterol ([2]; End, oral 100 μg): 1172 ± 67 mg/dL
Triglyceride ([2]; End, oral 100 μg): 282 ± 29 mg/dL
Weight ([2]; End, oral 100 μg): 27.76 ± 0.7 g
Cholesterol ([2]; Time 0, oral 100 μg groups): 241 ± 9 mg/dL
Triglyceride ([2]; Time 0, oral 100 μg groups): 283 ± 31 mg/dL
Weight ([2]; Time 0, oral 100 μg groups): 19.6 ± 0.7 g

VCPFAGILENGAVRYTTFEY [Peptide S-1]
Cholesterol [1, 6]: 1380 ± 74 mg/dL
Triglyceride [1, 7]: 417 mg/dL
Cholesterol [1, 8]: 192 ± 11 mg/dL
Triglyceride [1, 8]: 67 ± 8 mg/dL
Weight [1, 8]: 20.7 ± 1.2 g
Weight [1, 9]: 32.5 ± 0.8 g
Cholesterol ([2]; End, oral 100 μg): 1104 ± 55 mg/dL
Triglyceride ([2]; End, oral 100 μg): 274 ± 33 mg/dL
Weight ([2]; End, oral 100 μg): 28.0 ± 0.7 g
Cholesterol ([2]; Time 0, oral 100 μg groups): 244 ± 12 mg/dL
Triglyceride ([2]; Time 0, oral 100 μg groups): 238 ± 36 mg/dL
Weight ([2]; Time 0, oral 100 μg groups): 20.6 ± 0.7 g
